Data on 2 molecules can be found in PMC8093215.

These are yes or no findings as the source states them, for the method shown.

The target of test [1] is human DNMT1 BAH1 domain, W796A, His6-MBP construct used for the autoinhibitory linker binding (human) (UniProt P26358). The test can be described thus: ITC; hDNMT1 BAH1 domain (WT, W796A or Mut^YW) with the autoinhibitory linker peptide hDNMT1(714-727); 5 °C; single-site binding mode; both purified.
For test [2], the target named is human DNMT1 BAH1 domain, Y775A/W796A (Mut^YW), His6-MBP construct used for the autoinhibitory linker binding (human) (UniProt P26358). Described as above.
The target in test [3] is hDNMT1 BAH1 domain W796A from the His6-MBP vector (human) (UniProt P26358). The test can be described thus: ITC; hDNMT1 BAH1 (WT, W796A or Mut^YW) with the autoinhibitory linker peptide hDNMT1(714-727); 5 °C; single-site fit; both purified.
Test [4] deals with hDNMT1 BAH1 domain Y775A/W796A from the His6-MBP vector (human) (UniProt P26358). The description is as above.
The target of test [5] is hDNMT1 BAH1 domain from the His6-MBP vector (human) (UniProt P26358).

B1: hDNMT1(714-727) autoinhibitory linker peptide (peptide, UniProt P26358 714-727)
peptide: SPKKMHQGKKKKQNY
For the molecule B1, the binding result in test [1] and in test [2] was “no binding” throughout.

B2: autoinhibitory linker peptide hDNMT1(714–727) (peptide, UniProt P26358 714-727)
peptide: SPKKMHQGKKKKQNY
For the molecule B2, the binding result in test [3], in test [4] and in test [5] was “no binding” each time.
